The list shows a part of the results.

In paper PMC7819943, “Rice protein-binding microarrays: a tool to detect cis-acting elements near promoter regions in rice” one finds binding signal data, which are given here for 54 sequences.

This assay has as its target T1, OsSMF1 (Oryza sativa, UniProt Q6ZLB0 1-436).
T1 sequence: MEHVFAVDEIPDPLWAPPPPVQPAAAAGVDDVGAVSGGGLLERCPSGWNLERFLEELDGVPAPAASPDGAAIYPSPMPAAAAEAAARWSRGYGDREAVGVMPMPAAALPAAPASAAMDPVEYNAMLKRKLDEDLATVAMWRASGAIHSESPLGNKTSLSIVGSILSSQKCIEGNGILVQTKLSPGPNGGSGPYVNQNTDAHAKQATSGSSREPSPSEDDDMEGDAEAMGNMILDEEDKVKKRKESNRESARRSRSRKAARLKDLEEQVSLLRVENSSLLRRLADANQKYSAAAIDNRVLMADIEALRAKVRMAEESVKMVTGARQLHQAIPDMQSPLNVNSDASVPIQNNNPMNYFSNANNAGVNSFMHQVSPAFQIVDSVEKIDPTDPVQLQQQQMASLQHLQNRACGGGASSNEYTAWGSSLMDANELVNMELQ
Briefly: protein-binding microarray (RPBM); PBS, 2% BSA, 51.3 ng/ul salmon testes DNA, 50 uM zinc acetate, 200 nM TF, 25 C, 1 h; high values mean tight binding. As to conditions: protein: recombinant; tags: N-terminal polyhistidine and DsRed monomer fusion (pET32a); chain copies: 2; label: CyDye5-dUTP incorporated in the synthesized complementary strand; 3' TTTTT single-stranded linker to array surface; dsDNA, one strand shown. An outline of the steps:
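Polyhistidine-tagged DsRed fusions of transcription factors, joined at the N-terminus, were expressed in E. coli BL21-CodonPlus and isolated on Ni–NTA. They were incubated at 200 nM for 1 h at 25 °C on a custom Agilent array, double-stranded and BSA-blocked, in PBS with 2% BSA, salmon testes DNA and 50 µM zinc acetate. The binding signal is per-feature fluorescence intensity (arbitrary units) read on an Axon 4000B scanner after washing.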
Regarding “ACACACAACACAGGAGAAGATGGACGTGTCAATTTACGGACGGAGTCACCTAGTGCAG”, the binding signal is 3310 fluorescence intensity (a.u.).

As to “TTACTGTTTAATAGCCACGCATCACATAAGTGCGACTTGACGGAGTCACCTAGTGCAG”, the binding signal is 3730 fluorescence intensity (a.u.).

Turning to “TTCTAATTTCTTGAGAGATATTTTCCGATTTATATTAATTCGGAGTCACCTAGTGCAG”, the binding signal was 10600 fluorescence intensity (a.u.).

With “GCCCGGATCGGCCGGCATTCCCCGCCCCGCGCGCGCTCCGCGGAGTCACCTAGTGCAG”, the binding signal is 3400 fluorescence intensity (a.u.).

For “GGCTTCGTCATCTCTCCCGACTTCTGACAACGTGGTAGTGCGGAGTCACCTAGTGCAG”, the binding signal is 5660 fluorescence intensity (a.u.).

Take “AAAGGAAGTTTGATACAGCAGGTCAAGCTCAAGGTCAAAACGGAGTCACCTAGTGCAG”: the binding signal was 28300 fluorescence intensity (a.u.).

“GATGAAGTTTGTTGGCACTGATGAGTTGCCTGGACCAGCACGGAGTCACCTAGTGCAG”: the binding signal is 3180 fluorescence intensity (a.u.).

Turning to “ACCCATGCCGAAGATGGACATGACAGATCGATCTTGTCTCCGGAGTCACCTAGTGCAG”, the binding signal is 3700 fluorescence intensity (a.u.).

Regarding “AGCGATGATCTAGCCATAAATCTTTCCGTTGACTCTCGCGCGGAGTCACCTAGTGCAG”, the binding signal is 31600 fluorescence intensity (a.u.).

For “ATTTCAGTGAGCTGACCTTGGCGCAGGCCGCCTCCAAGAACGGAGTCACCTAGTGCAG”, the binding signal is 4430 fluorescence intensity (a.u.).

Turning to “ACACTGTTCACCATGATCCACGTATATATGTGACGAAAATCGGAGTCACCTAGTGCAG”, the binding signal is 4560 fluorescence intensity (a.u.).

As for “GCTGCCGCACCGCGCGATGCGTGACCTGGCCGGCGTGCACCGGAGTCACCTAGTGCAG”, the binding signal is 5920 fluorescence intensity (a.u.).

As for “TGCTACTTGCTCGTGGGATCATCATATTGCTGTCGACCTGCGGAGTCACCTAGTGCAG”, the binding signal was 3660 fluorescence intensity (a.u.).

As for “TCAACCTCAACAACGCCGGTGTGAGGGTCCTCGAGGCCACCGGAGTCACCTAGTGCAG”, the binding signal is 17900 fluorescence intensity (a.u.).

Regarding “ATATATACATGTATGGTTCGAGTCATGACATAGACGGAAGCGGAGTCACCTAGTGCAG”, the binding signal was 3220 fluorescence intensity (a.u.).

Turning to “TCAATACAAAAGGCCCATGTGGAGACTGAAACCCAACGTACGGAGTCACCTAGTGCAG”, the binding signal is 3540 fluorescence intensity (a.u.).

For the sequence “TTCCCTCTAAGTTATTGCCGTGTCGTTCTTATCTTAACCACGGAGTCACCTAGTGCAG”, the binding signal was 4050 fluorescence intensity (a.u.).

As for “CCTGCATGCGTGGCTGCGCTCACTGTCGTTATTTGCTTTACGGAGTCACCTAGTGCAG”, the binding signal was 5080 fluorescence intensity (a.u.).

Turning to “GAGACAGGAACACGCCTGTCAGCATGGACACAGTGGCAACCGGAGTCACCTAGTGCAG”, the binding signal is 3450 fluorescence intensity (a.u.).

Consider “CGAAGTCCACCTGCCACGGTTCTGGAGCTCCGCTCCTTTTCGGAGTCACCTAGTGCAG”, for which the binding signal was 3210 fluorescence intensity (a.u.).

Consider “TGGGAGAGGGTAGTAGGTGGGCCGAGGTACACACGTGGGGCGGAGTCACCTAGTGCAG”, for which the binding signal is 5560 fluorescence intensity (a.u.).

As for “ACACCGTTACCATTAGTTAACAGAGTAGGGGCACGTGGCTCGGAGTCACCTAGTGCAG”, the binding signal was 4530 fluorescence intensity (a.u.).

Take “GACAGCCAAATGTCTGCACACACACACACTCACAACTGTCCGGAGTCACCTAGTGCAG”: the binding signal was 5050 fluorescence intensity (a.u.).

As to “GGCCACAGTCCGACCACGTATGCTGCCCTCCTCGCCCAATCGGAGTCACCTAGTGCAG”, the binding signal is 8920 fluorescence intensity (a.u.).

Consider “GCCAACGCCGTCCCCGTCACCTCGCGCCTGCGCCCTCGTCCGGAGTCACCTAGTGCAG”, for which the binding signal was 5360 fluorescence intensity (a.u.).

In the case of “CGGATCCTCTCGGTATCACCTCGCGCCACGCAACCGCGGGCGGAGTCACCTAGTGCAG”, the binding signal is 4740 fluorescence intensity (a.u.).

As to “TGTTGCCGTCTCCCTGCGCGATTCCGCCGCCGCCGCGATGCGGAGTCACCTAGTGCAG”, the binding signal was 26000 fluorescence intensity (a.u.).

For “AGCCCGCACGTTCGCCGCAATCCAGTTCCTGGCCCAACTACGGAGTCACCTAGTGCAG”, the binding signal was 3300 fluorescence intensity (a.u.).

Regarding “AAATTCCTGATTTACAGTGATCCCAGTCACCCCGGTCTTCCGGAGTCACCTAGTGCAG”, the binding signal is 3350 fluorescence intensity (a.u.).

With “AGGCCTGCACGTCCCGTTCCAGGGCCTAGCTTGTTCCGCCCGGAGTCACCTAGTGCAG”, the binding signal was 24200 fluorescence intensity (a.u.).

Turning to “AGCACTACTCCAACGCAGCAACCAACACGTACCTCCACATCGGAGTCACCTAGTGCAG”, the binding signal is 6420 fluorescence intensity (a.u.).

On to “CATGCCAGTGACACGTACTGCAGGTGCAGTACAGCAGTGGCGGAGTCACCTAGTGCAG”, for which the binding signal is 5170 fluorescence intensity (a.u.).

As for “AGACCAAACTATCTCCAACTTGACTCATTAGCAGCAAACACGGAGTCACCTAGTGCAG”, the binding signal was 3490 fluorescence intensity (a.u.).

With “TGCTTCAATTCGCGTGAACTCATCCAATCTGCATGCCGGTCGGAGTCACCTAGTGCAG”, the binding signal was 20200 fluorescence intensity (a.u.).

Consider “CCGAGGCCCAATAAATTATGGGGTTGGCTCCAATAAATTACGGAGTCACCTAGTGCAG”, for which the binding signal is 3940 fluorescence intensity (a.u.).

For “ATAAAGACCTAAGTTGCATAAATTGTCAAAGTTTAATCTGCGGAGTCACCTAGTGCAG”, the binding signal was 32600 fluorescence intensity (a.u.).

With “GTGGGTTCTTTGTGGGGTCTCTTATAGTTTTCACTGCCAGCGGAGTCACCTAGTGCAG”, the binding signal is 3610 fluorescence intensity (a.u.).

Regarding “AATTTGGATTTGAATTATATCTGATTCAAATTTGAATTTGCGGAGTCACCTAGTGCAG”, the binding signal was 3270 fluorescence intensity (a.u.).

Take “TGTTTTCGTGATACTTACTACACTTAAATAAGAACGCAACCGGAGTCACCTAGTGCAG”: the binding signal was 3890 fluorescence intensity (a.u.).

On to “AGTAGCAGCCGGCGTGCTACTCCTCCGGTCAGCAGCAGCCCGGAGTCACCTAGTGCAG”, for which the binding signal is 3550 fluorescence intensity (a.u.).

For the sequence “ACCTCAGAGAAAGAGCTGCGCCGAACCGTCACGAGGCGGCCGGAGTCACCTAGTGCAG”, the binding signal was 3250 fluorescence intensity (a.u.).

On to “GTTTTGGTCGGTCTCATTCGCTCGTTCCTCCGCCCGAGGCCGGAGTCACCTAGTGCAG”, for which the binding signal was 4650 fluorescence intensity (a.u.).

As to “TTATCCTACGTACAACACCTACTACAGCTATAGGTGTTGGCGGAGTCACCTAGTGCAG”, the binding signal is 3700 fluorescence intensity (a.u.).

On to “GCATACGCAGATGCCAACAAAGCAACATGCATGAATGTCACGGAGTCACCTAGTGCAG”, for which the binding signal was 3430 fluorescence intensity (a.u.).

As for “TCAATGGCGTCATACATTAGAATAAGGAGGGAGTAACTGACGGAGTCACCTAGTGCAG”, the binding signal is 3240 fluorescence intensity (a.u.).

As to “CGAGCCGCACGTCACCTGAACAATCTATCTGATCCAAAGGCGGAGTCACCTAGTGCAG”, the binding signal is 5790 fluorescence intensity (a.u.).

In the case of “CATGAACCTGTTACTTAATTATAGATAGCACTCATGAAGCCGGAGTCACCTAGTGCAG”, the binding signal was 7130 fluorescence intensity (a.u.).

With “TCGCCGAGGGAAGGCCTACGAGCGGATCTGCCATGTGGCGCGGAGTCACCTAGTGCAG”, the binding signal is 5200 fluorescence intensity (a.u.).

“CATGCGCCACGTGATGCGTGCCACTAAACCATCGGCTGGCCGGAGTCACCTAGTGCAG”: the binding signal is 4370 fluorescence intensity (a.u.).

For the sequence “GGAATTTCTGGGCGTGACAGGTGTACATGATGTATTCCATCGGAGTCACCTAGTGCAG”, the binding signal was 3210 fluorescence intensity (a.u.).

Turning to “TCCCACGCTGACTTAGCGCAGCTACTGCAGTCAAAGCGTCCGGAGTCACCTAGTGCAG”, the binding signal is 3680 fluorescence intensity (a.u.).

As for “TGCCTTATTTCTATGTGGGTAAGCTCATTTTGTTGTTACGCGGAGTCACCTAGTGCAG”, the binding signal is 3180 fluorescence intensity (a.u.).

For “CATATTATGCTGTCATATCCTCGAGTATTCGTGTACCAATCGGAGTCACCTAGTGCAG”, the binding signal was 4300 fluorescence intensity (a.u.).

Turning to “AAACCAACCAGTATTGGATATGACACGTGCTAACACATACCGGAGTCACCTAGTGCAG”, the binding signal was 7970 fluorescence intensity (a.u.).
